Reference: the supplement of paper PMC12819154, “High-throughput peptide-centric local stability assay extends protein–ligand identification to membrane proteins, tissues and bacteria” (Nature Structural & Molecular Biology, 2025)
The list shows a part of the results. Most entries show no effect beyond the scatter of the controls.

Chains of the proteins cited; added tags and fusions are not shown. Lines headed by an entry give the natural chain unless they say otherwise; changes in a name come on top.
UniProt Q3TGW2: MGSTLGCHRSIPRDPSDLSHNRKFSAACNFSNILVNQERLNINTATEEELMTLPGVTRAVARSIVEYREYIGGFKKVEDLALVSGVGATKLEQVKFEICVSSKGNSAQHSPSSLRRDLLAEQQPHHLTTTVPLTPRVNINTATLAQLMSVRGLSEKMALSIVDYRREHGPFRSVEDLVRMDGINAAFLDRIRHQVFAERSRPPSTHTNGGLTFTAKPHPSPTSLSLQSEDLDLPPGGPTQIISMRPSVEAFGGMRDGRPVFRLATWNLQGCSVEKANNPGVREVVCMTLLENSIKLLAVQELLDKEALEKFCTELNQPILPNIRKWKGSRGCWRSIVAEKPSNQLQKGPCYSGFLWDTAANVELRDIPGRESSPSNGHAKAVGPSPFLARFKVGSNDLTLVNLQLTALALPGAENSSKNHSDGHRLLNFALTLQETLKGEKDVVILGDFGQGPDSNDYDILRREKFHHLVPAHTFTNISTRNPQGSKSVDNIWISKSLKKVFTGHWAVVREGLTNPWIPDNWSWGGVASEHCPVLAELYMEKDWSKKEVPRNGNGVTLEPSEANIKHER
UniProt Q0VBL1: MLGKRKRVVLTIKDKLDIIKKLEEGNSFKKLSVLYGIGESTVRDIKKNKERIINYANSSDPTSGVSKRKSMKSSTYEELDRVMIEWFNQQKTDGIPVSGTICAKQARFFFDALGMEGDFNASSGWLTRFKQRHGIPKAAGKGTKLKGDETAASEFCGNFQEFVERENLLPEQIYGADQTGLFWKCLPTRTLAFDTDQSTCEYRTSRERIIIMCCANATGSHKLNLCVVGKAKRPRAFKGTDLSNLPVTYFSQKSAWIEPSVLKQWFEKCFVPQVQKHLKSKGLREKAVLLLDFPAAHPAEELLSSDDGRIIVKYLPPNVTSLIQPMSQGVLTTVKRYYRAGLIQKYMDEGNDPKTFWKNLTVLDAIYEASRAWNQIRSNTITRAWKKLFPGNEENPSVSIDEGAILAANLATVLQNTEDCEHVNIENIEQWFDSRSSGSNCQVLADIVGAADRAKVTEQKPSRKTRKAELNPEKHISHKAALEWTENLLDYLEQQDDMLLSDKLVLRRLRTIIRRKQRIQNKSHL
UniProt Q3TIX9: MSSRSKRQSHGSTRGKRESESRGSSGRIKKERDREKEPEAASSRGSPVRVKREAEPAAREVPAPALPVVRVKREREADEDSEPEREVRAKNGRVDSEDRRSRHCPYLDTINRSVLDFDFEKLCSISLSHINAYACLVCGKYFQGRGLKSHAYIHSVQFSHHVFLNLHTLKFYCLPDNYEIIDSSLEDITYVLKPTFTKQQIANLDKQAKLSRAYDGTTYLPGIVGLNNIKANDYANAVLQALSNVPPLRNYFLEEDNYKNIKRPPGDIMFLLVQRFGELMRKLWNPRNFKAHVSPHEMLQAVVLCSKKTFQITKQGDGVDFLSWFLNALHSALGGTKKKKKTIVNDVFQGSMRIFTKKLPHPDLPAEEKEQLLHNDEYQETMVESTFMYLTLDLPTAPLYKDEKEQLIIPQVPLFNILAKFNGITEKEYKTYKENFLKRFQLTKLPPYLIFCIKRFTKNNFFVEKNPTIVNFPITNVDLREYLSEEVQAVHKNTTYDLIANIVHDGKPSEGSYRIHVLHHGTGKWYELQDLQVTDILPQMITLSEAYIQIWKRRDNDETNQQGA
UniProt Q3TJ91: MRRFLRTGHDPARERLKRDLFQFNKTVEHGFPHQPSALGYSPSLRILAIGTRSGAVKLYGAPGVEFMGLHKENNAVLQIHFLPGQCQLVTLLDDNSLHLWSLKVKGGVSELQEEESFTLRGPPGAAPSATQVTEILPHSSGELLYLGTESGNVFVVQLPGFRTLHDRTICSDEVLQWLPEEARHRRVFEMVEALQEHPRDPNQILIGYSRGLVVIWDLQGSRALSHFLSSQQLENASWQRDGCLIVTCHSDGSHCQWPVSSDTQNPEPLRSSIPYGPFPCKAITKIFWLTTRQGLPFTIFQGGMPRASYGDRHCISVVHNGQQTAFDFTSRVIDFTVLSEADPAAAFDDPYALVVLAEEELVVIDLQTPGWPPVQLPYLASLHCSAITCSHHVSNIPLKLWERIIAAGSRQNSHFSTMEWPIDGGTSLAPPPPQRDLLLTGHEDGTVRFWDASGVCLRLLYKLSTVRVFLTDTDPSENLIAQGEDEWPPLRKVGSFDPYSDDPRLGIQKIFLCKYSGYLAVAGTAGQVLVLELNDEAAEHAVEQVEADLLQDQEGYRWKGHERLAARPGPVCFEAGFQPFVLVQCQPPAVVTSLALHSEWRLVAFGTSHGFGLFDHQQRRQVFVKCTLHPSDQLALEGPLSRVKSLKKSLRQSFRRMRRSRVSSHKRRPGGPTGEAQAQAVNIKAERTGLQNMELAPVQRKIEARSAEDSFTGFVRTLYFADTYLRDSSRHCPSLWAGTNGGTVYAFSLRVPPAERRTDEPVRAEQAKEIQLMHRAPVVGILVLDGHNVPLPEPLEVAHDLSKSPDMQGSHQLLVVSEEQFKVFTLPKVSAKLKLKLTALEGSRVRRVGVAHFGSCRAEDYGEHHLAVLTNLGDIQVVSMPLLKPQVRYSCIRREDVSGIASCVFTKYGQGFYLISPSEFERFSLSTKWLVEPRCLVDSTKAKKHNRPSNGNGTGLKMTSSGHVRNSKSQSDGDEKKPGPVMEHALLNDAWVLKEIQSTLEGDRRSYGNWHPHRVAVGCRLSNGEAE
UniProt Q07813, whole entry: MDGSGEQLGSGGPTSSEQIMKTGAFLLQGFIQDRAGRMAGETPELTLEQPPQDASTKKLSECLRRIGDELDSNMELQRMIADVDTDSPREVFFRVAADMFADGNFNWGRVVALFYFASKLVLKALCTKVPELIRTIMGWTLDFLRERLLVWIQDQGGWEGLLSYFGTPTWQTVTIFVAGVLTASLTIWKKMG
UniProt Q3THK3, whole entry: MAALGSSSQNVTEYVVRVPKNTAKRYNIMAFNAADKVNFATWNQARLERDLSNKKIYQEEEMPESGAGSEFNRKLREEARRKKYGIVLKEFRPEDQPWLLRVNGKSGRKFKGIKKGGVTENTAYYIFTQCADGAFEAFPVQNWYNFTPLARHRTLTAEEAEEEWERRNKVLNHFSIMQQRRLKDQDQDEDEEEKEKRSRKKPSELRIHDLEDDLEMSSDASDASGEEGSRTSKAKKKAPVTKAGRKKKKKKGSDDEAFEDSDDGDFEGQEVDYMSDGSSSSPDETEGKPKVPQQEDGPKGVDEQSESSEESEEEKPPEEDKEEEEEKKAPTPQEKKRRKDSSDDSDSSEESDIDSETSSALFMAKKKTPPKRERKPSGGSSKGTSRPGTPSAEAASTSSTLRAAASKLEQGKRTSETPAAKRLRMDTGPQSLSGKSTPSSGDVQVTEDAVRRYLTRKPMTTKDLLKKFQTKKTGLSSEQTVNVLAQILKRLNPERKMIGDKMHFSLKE
UniProt Q1W617: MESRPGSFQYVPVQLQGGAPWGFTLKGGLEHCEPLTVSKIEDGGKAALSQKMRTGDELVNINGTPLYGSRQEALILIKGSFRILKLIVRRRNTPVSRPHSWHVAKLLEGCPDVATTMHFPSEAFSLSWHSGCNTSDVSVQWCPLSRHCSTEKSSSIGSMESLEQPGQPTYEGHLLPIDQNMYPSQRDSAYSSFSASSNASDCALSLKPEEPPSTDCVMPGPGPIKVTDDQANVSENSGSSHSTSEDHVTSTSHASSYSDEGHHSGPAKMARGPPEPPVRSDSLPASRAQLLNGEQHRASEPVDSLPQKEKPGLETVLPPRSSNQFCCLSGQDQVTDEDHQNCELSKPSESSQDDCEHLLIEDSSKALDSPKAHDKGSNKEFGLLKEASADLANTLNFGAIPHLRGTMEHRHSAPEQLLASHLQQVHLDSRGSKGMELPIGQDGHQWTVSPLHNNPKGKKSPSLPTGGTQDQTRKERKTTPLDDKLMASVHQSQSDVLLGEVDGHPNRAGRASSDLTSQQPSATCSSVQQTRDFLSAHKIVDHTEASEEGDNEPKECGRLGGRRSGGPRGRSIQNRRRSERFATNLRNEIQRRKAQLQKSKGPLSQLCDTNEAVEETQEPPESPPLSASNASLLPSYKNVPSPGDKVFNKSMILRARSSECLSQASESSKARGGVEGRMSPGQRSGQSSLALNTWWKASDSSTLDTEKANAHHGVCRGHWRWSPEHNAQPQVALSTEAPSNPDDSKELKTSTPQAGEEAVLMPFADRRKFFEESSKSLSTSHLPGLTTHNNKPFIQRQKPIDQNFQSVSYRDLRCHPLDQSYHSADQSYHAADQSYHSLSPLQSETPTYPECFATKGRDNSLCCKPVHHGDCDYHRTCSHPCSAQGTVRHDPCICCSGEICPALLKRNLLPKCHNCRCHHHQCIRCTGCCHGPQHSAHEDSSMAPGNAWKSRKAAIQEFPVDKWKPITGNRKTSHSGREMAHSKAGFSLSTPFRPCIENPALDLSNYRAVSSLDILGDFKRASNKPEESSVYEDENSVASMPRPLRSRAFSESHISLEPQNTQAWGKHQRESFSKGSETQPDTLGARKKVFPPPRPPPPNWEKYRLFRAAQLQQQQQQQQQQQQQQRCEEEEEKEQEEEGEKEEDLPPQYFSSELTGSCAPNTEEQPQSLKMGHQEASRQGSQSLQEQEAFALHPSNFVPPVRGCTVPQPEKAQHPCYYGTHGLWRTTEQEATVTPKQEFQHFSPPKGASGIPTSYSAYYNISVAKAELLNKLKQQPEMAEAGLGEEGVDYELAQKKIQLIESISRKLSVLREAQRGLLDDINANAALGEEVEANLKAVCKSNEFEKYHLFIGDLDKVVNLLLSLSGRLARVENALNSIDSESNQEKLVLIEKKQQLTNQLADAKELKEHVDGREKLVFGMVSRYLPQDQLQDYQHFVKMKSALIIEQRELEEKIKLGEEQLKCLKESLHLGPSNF
UniProt Q0GNC1, whole entry: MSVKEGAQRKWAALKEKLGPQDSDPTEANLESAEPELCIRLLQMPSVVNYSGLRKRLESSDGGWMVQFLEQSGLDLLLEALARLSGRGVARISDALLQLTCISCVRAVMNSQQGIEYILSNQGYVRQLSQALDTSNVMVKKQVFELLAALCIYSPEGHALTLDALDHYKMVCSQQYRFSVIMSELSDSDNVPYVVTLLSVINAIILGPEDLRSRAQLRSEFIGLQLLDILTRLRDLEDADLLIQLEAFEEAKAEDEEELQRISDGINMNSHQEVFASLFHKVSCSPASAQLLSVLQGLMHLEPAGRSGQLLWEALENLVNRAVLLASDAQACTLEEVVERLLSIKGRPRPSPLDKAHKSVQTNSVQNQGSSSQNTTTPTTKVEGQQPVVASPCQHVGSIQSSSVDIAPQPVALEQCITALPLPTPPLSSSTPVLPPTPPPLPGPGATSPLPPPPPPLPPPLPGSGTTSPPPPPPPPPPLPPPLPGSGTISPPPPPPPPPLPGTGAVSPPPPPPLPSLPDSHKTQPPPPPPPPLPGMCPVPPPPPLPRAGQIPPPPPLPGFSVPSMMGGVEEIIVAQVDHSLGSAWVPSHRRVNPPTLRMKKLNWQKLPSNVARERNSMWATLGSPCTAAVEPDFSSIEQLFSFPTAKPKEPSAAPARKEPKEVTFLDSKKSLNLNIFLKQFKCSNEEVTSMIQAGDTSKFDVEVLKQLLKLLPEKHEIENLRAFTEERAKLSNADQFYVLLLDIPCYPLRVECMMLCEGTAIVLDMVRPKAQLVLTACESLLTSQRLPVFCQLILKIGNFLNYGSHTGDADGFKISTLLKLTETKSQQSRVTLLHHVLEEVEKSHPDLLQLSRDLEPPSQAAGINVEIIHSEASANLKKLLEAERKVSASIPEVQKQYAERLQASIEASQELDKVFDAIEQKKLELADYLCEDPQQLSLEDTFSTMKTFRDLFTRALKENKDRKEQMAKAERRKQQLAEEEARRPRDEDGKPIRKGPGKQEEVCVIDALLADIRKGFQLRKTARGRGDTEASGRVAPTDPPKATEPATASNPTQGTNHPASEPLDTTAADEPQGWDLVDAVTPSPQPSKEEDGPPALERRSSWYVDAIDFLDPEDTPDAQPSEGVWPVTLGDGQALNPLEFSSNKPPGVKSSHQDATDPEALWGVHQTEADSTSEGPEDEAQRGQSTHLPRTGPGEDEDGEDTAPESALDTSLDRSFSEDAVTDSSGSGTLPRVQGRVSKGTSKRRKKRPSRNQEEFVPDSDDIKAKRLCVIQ
UniProt Q06986: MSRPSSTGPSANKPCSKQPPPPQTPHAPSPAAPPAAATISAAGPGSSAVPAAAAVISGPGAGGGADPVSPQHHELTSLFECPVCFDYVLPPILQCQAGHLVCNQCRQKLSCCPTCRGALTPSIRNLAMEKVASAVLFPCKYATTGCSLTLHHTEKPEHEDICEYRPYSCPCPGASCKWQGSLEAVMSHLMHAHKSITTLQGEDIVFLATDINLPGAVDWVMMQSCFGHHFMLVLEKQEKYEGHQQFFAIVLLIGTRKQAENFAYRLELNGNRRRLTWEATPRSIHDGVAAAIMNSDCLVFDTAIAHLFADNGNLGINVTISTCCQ

Compound: CN[C@@H]1C[C@H]2O[C@@](C)([C@@H]1OC)n1c3ccccc3c3c4c(c5c6ccccc6n2c5c31)C(=O)NC4 [staurosporine]
Assay: log2 fold change of tryptic peptide abundance, ligand vs vehicle (limited proteolysis) (log2 ratio); higher = more trypsin-susceptible (destabilized)
Conditions: ligand concentration: 20 uM; sample: mouse liver crude lysate; replicate design: treated separately

Target | log2 fold change
UniProt Q08943 (peptide sequence: RPMSAYMLWLNASR, peptide start residue: 549) | 0.145
UniProt Q3TPX4 (peptide sequence: GGPEAFDPKR, peptide start residue: 32) | 0.417
UniProt Q3TGW2 (peptide sequence: SIPRDPSDLSHNR, peptide start residue: 10) | -0.249
UniProt Q05186 (peptide sequence: HWILPQDYDHAQAEAR, peptide start residue: 265) | -0.0939
UniProt Q3U1C6 (peptide sequence: ELQSHPLQAK, peptide start residue: 272) | -0.519
UniProt Q05117 (peptide sequence: WNFPSPYYR, peptide start residue: 132) | -0.136
UniProt Q3TJZ6 (peptide sequence: VPPNHVGKPLLK, peptide start residue: 182) | 0.307
UniProt Q0VBL1 (peptide sequence: KAELNPEK, peptide start residue: 467) | 0.201
UniProt Q3TIX9 (peptide sequence: EREADEDSEPEREVR, peptide start residue: 74) | -0.512
UniProt Q3TJ91 (peptide sequence: TLYFADTYLR, peptide start residue: 717) | 0.272
UniProt Q05CL8 (peptide sequence: VLSKTEWMDLKK, peptide start residue: 374) | -0.419
UniProt Q07813 (peptide sequence: RIGDELDSNMELQR, peptide start residue: 65) | -0.143
UniProt Q3THK3 (peptide sequence: KTGLSSEQTVNVLAQILK, peptide start residue: 472) | 0.351
UniProt Q3TQB2 (peptide sequence: VWPHLVQR, peptide start residue: 388) | 0.45
UniProt Q3U0J8 (peptide sequence: NSMSSFRPGR, peptide start residue: 229) | 0.509
UniProt Q05915 (peptide sequence: TVTSTMLGVFREDPK, peptide start residue: 216) | -0.485
UniProt Q1W617 (peptide sequence: IKLGEEQLK, peptide start residue: 1454) | 0.124
UniProt Q0GNC1 (peptide sequence: LNWQKLPSNVAR, peptide start residue: 602) | -0.391
UniProt Q3TXX3 (peptide sequence: SSMGATAPEAQR, peptide start residue: 389) | 0.192
UniProt Q3TY86 (peptide sequence: IEVVLPEKER, peptide start residue: 15) | 0.333
UniProt Q03267 (peptide sequence: SNHSAQDAVDNLLLLSK, peptide start residue: 357) | 0.406
UniProt Q06986 (peptide sequence: LSCCPTCR, peptide start residue: 109) | 0.244
UniProt Q06649 (peptide sequence: SPSPLLPPPPPKR, peptide start residue: 230) | 0.128

Looked up one by one from the entries so far, two records:
Target | log2 fold change
UniProt Q0GNC1 (peptide sequence: LNWQKLPSNVAR, peptide start residue: 602) | -0.391
UniProt Q0VBL1 (peptide sequence: KAELNPEK, peptide start residue: 467) | 0.201
